# Laboratory results taken from article doi:10.1101/2021.11.29.470468.
# Amino acid sequences for entries named in this document (tags omitted).
# UniProt Q8K1M6: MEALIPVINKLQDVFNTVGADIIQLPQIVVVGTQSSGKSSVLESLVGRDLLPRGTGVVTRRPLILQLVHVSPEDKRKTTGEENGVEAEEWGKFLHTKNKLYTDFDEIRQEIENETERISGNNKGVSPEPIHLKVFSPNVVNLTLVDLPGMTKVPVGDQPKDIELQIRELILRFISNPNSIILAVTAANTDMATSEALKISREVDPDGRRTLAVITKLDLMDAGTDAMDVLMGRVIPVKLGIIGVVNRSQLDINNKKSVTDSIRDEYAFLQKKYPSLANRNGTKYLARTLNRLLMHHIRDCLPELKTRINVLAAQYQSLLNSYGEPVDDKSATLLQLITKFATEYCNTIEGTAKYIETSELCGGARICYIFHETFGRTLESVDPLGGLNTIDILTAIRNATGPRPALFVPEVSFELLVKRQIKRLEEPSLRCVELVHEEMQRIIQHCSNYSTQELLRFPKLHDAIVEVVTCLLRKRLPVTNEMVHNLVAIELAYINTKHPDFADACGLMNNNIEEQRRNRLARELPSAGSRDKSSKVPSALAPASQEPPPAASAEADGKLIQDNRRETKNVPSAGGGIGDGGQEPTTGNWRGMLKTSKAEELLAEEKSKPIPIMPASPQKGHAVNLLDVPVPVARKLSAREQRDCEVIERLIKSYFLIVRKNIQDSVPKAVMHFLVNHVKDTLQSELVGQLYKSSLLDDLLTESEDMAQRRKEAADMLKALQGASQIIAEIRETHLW
# Like-named read-outs stand apart in the source and are kept apart here. No constants are given. Whether binding was seen depends on the method and setting. Some entries that bind do so weakly or less than the wild type.
# How the values were obtained:
# [1] = target: dynamin-related protein 1 (DRP1) (mouse (endogenous in heart ventricles)) (UniProt Q8K1M6); assay: native gel or EMSA
# [2] = target: dynamin-related protein 1 (DRP1) (mouse (endogenous in heart ventricles)) (UniProt Q8K1M6); assay: native gel or EMSA; remark: listed apart in the source
substance,measurement,setting,value
dynamin-related protein 1 (DRP1) (from UniProt Q8K1M6 1-736),binding,[1],binds
same,binding,[2],binds
